Measured values from article PMC8440931, “Physical and Functional Interaction of Mitochondrial Single-Stranded DNA-Binding Protein and the Catalytic Subunit of DNA Polymerase Gamma” (Frontiers in Genetics, 2021).
These are yes or no findings as the source states them, for the method shown. Some results given as binding are weak or reduced against the parent protein; the word gives no strength. Blank lines part the entries; values can stand above or below the molecule they belong to.

Sequences of proteins named here, by UniProt entry; tags and fusion partners are left off. Residues count along the entry.
UniProt P02769, residues 25-607: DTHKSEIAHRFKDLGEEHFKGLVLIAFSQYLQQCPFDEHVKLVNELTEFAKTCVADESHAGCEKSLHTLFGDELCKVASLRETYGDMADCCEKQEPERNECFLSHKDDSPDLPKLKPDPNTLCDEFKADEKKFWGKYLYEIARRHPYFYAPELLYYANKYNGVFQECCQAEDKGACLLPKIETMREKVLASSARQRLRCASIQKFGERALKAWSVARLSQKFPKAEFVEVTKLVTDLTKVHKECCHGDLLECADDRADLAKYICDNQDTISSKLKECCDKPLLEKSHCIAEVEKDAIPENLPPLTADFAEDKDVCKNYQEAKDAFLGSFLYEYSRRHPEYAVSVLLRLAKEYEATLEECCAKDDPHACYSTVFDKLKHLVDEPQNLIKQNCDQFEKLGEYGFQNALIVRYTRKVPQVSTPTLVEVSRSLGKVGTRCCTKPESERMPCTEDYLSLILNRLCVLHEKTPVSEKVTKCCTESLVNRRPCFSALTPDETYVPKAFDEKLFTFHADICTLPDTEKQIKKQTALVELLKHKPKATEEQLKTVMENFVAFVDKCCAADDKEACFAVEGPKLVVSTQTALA

Assays:
[1] = target: T1, biotinylated mitochondrial single-stranded DNA-binding protein (BTN-mtSSB), wild type (human) (UniProt Q04837); test: BLI; BTN-mtSSB or BTN-mtSSB_(l2.3) (600 nM) saturated on streptavidin sensors; Pol γα as analyte at increasing concentrations; Ac buffer: 50 mM Tris-HCl pH 8.0, 10 mM KCl, 4 mM MgCl2, 0.4 mg/ml BSA, 10 mM DTT; 30°C, 1,000 rpm; 1:1 interaction model; both purified
T1 sequence (chain, biotin (conjugated; site not stated)): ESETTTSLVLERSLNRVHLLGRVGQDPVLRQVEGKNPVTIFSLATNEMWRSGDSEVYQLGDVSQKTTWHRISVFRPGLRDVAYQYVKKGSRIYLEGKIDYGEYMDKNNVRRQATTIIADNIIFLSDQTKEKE

[2] = target: T1, biotinylated mitochondrial single-stranded DNA-binding protein (BTN-mtSSB), wild type (human); test: BLI; BTN-mtSSB on streptavidin sensors; 120 nM Pol γα alone, replaced by, or preincubated with 120 nM Pol γβ2; both purified
[3] = target: T1, biotinylated mitochondrial single-stranded DNA-binding protein (BTN-mtSSB), wild type (human); test: BLI; BTN-mtSSB sensors first incubated in solutions with increments of 43-nt-long ssDNA oligomers, then placed into the Pol γα solution; both purified
[4] = target: T1, biotinylated mitochondrial single-stranded DNA-binding protein (BTN-mtSSB), wild type (human); test: BLI; BTN-mtSSB on streptavidin sensors; association response of 120 nM Pol γα in the presence of increasing KCl concentrations; both purified

binding [1]: no binding (tested: 0.4mg/ml)
Molecule: bovine serum albumin (BSA) (from UniProt P02769 25-607)

binding [2]: binds | binding [3]: binds
B1: catalytic subunit of mitochondrial DNA polymerase gamma (Pol γα) (enzyme, human, UniProt P54098 1-1239, looked up)
chain: MSRLLWRKVAGATVGPGPVPAPGRWVSSSVPASDPSDGQRRRQQQQQQQQQQQQQPQQPQVLSSEGGQLRHNPLDIQMLSRGLHEQIFGQGGEMPGEAAVRRSVEHLQKHGLWGQPAVPLPDVELRLPPLYGDNLDQHFRLLAQKQSLPYLEAANLLLQAQLPPKPPAWAWAEGWTRYGPEGEAVPVAIPEERALVFDVEVCLAEGTCPTLAVAISPSAWYSWCSQRLVEERYSWTSQLSPADLIPLEVPTGASSPTQRDWQEQLVVGHNVSFDRAHIREQYLIQGSRMRFLDTMSMHMAISGLSSFQRSLWIAAKQGKHKVQPPTKQGQKSQRKARRGPAISSWDWLDISSVNSLAEVHRLYVGGPPLEKEPRELFVKGTMKDIRENFQDLMQYCAQDVWATHEVFQQQLPLFLERCPHPVTLAGMLEMGVSYLPVNQNWERYLAEAQGTYEELQREMKKSLMDLANDACQLLSGERYKEDPWLWDLEWDLQEFKQKKAKKVKKEPATASKLPIEGAGAPGDPMDQEDLGPCSEEEEFQQDVMARACLQKLKGTTELLPKRPQHLPGHPGWYRKLCPRLDDPAWTPGPSLLSLQMRVTPKLMALTWDGFPLHYSERHGWGYLVPGRRDNLAKLPTGTTLESAGVVCPYRAIESLYRKHCLEQGKQQLMPQEAGLAEEFLLTDNSAIWQTVEELDYLEVEAEAKMENLRAAVPGQPLALTARGGPKDTQPSYHHGNGPYNDVDIPGCWFFKLPHKDGNSCNVGSPFAKDFLPKMEDGTLQAGPGGASGPRALEINKMISFWRNAHKRISSQMVVWLPRSALPRAVIRHPDYDEEGLYGAILPQVVTAGTITRRAVEPTWLTASNARPDRVGSELKAMVQAPPGYTLVGADVDSQELWIAAVLGDAHFAGMHGCTAFGWMTLQGRKSRGTDLHSKTATTVGISREHAKIFNYGRIYGAGQPFAERLLMQFNHRLTQQEAAEKAQQMYAATKGLRWYRLSDEGEWLVRELNLPVDRTEGGWISLQDLRKVQRETARKSQWKKWEVVAERAWKGGTESEMFNKLESIATSDIPRTPVLGCCISRALEPSAVQEEFMTSRVNWVVQSSAVDYLHLMLVAMKWLFEEFAIDGRFCISIHDEVRYLVREEDRYRAALALQITNLLTRCMFAYKLGLNDLPQSVAFFSAVDIDRCLRKEVTMDCKTPSNPTGMERRYGIPQGEALDIYQIIELTKGSLEKRSQPGP
binding [4]: no binding (condition: increasing KCl concentrations)
